Measurements taken from US8334255B2, “Peptide and treatment for HIV-1 infection” (Thomas Jefferson University, priority 2006, dated 2012).
“Also recorded” adds a separate entry of the source. For some assays here: At least one peptide structure holds a part that was inferred or is arguable (an end, a ring closure or a residue). For some assays here: For at least one compound, name, drawing or mass did not settle the structure. Ends that are not written are not given here.

Experiments:
HIV-1 = conditions: AZT alone; cited from earlier work
HIV-1NL4-3 Viruses [1] = assay: Viral infectivity assay in human T lymphoblastoid H9 cell line, p24 antigen ELISA; assay type: cell-based; conditions: H9 cells, MOI 0.01, peptide 50 μM, compared to untreated cells or control peptide
Method: A viral infectivity assay was performed in the presence or absence of the peptides of amino acid sequence SEQ ID NO:2 and SEQ ID NO:36, and the control peptide of amino acid sequence SEQ ID NO:35 using HIV-1NL4-3 viruses in H9 cells and assaying HIV-1 p24 antigen. The procedure was performed essentially as described by B. Yang, et al., J. Bio. Chem., 2003; 278(8), 6596-602, which describes the method as follows. H9 cells (1×10^6) are mixed with HIV-1NL4-3 viruses at a multiplicity of infection of 0.01. After incubation at 37° C. for 5 hours, the excess viruses were removed, and the cells are cultured in the presence of RPMI 1640 medium plus […] fetal bovine serum with or without the peptides at a concentration of 50 μM. Every 3-4 days the supernatants are harvested and refreshed. The effects of the peptides on viral infectivity are monitored by detecting the HIV-1 p24 antigen level in the cell culture supernatant via ELISA.

[2] = system: VSV-G pseudotype HIV viruses; assay type: cell-based, HIV-1
HIV-1NL4-3 Viruses [3] = assay: Viral infectivity assay in peripheral blood mononuclear cells, p24 Gag ELISA; assay type: cell-based; conditions: PBMCs infected with HIV-1NL4-3, MOI 0.1; p24 antigen level by ELISA
Method: Various truncated analogues of the peptide of amino acid sequence SEQ ID NO:36 were prepared to determine the minimal peptide necessary to inhibit viral infectivity. The compounds were tested in a viral infectivity assay in which PBMCs were infected with HIV-1NLA-3 viruses (MOI: 0.1). The amounts of virus produced were monitored by detecting the HIV-1 p24 antigen. level in the cell culture using p24 Gag ELISA (Zeptometrics).

HIV-1IIIB virus = assay: Low multiplicity of infection acute infection assay in MT-2 cells, reverse transcriptase assay; conditions: for delay of the onset of virus production: MT-2 cells, RT assay

| Compound | reduction on viral load (HIV-1) | effect on viral replication (HIV-1 p24 antigen in supernatant) (HIV-1NL4-3 Viruses [1]) | infectivity of viruses produced (luminescence in JC53BL reporter cells) [2] | Activity (inhibiting HIV-1NL4-3 viruses in viral infectivity assay) (HIV-1NL4-3 Viruses [3]) | effect on virus production (in words) (HIV-1IIIB virus; MOI 0.003, peptide 50 μM) | delay of the onset of virus production (HIV-1IIIB virus; MOI 0.003, peptide 50 μM, compared to virus control) [days] | day by which suppression was reestablished (HIV-1IIIB virus; MOI 0.01, peptide 50 μM) [days] | day of peak of virus production (HIV-1IIIB virus; MOI 0.01, peptide 50 μM) [days] | delay of the onset of virus production (HIV-1IIIB virus; MOI 0.01, peptide 50 μM) [days] | day by which suppression was reestablished (HIV-1IIIB virus; MOI 0.03, peptide 50 μM) [days] | day of peak of virus production (HIV-1IIIB virus; MOI 0.03, peptide 50 μM) [days] | delay of the onset of virus production (HIV-1IIIB virus; MOI 0.03, peptide 50 μM) [days] | delay of the onset of virus production (HIV-1IIIB virus; MOI 0.1, peptide 50 μM) [days] | effectiveness in inhibiting virus production relative to the peptide of SEQ ID NO:36 (HIV-1IIIB virus; all but the highest MOIs tested) |
| --- | --- | --- | --- | --- | --- | --- | --- | --- | --- | --- | --- | --- | --- | --- |
| Cc1cn([C@H]2C[C@H](N=[N+]=[N-])[C@@H](CO)O2)c(=O)[nH]c1=O [AZT, azidothymidine] | about 1 log | – | – | – | – | – | – | – | – | – | – | – | – | – |
| YGRKKRRQRRRGQGGSPLPRSV [SEQ ID NO:2] | – | inhibited viral replication | reduced; also recorded: No effect | Active | significant protection | 7 to 8 | 15 to 16 | ~11 | 5 to 6 | ≤ 15 | ~11 | 3 to 4 | 5 to 6 | markedly more effective |
